Earlier results in publication PMC12604490, “Dual immunomodulatory and antileishmanial potential of TLR7/8 agonists against Leishmania donovani” (Infection and Immunity, 2025).

Test system: Leishmania infantum
Set-up: method as in PMID 35111861
Conditions: read-out: IC50 against Leishmania infantum; cited from earlier work

Compound: CN1CC[C@]23c4c5ccc(O)c4O[C@H]2[C@@H](O)C=C[C@H]3[C@H]1C5 [morphine]
- IC50: 102 ± 30 nM
